According to US9346741B2, “Polyamine transport selective therapeutic agents with enhanced stability” (University of Central Florida Research Foundation, Inc., priority 2012, dated 2016):
Some entries share one result that the patent states for a list of compounds. At least one structure is not confirmed: it was looked up by name or label, or the drawing left a doubt.

Tested on: MALME-3M cells
Assay: Spermidine rescue experiments in MALME-3M cells
Assay type: cell-based, human
Details: dosed near the IC50 value; increasing spermidine; 96 h
Protocol: In order to validate that these drugs were toxic due to their use of the polyamine transport system, spermidine rescue experiments were conducted. Spermidine is a native polyamine and uses the PTS for cell entry. High concentrations of spermidine should outcompete the PTS-targeting drugs for cell entry. In this regard, spermidine when dosed at a non-toxic concentration should rescue the cells from the toxic effects of the PTS targeting agents. […] Rescue was observed from the initial 50% viability to >92% viability after co-dosing 10 μM spermidine.
These cells were also treated with increasing amounts of spermidine to see if it could outcompete compounds 6-8 for cellular entry and thus rescue the cells. […] This supports the premise that these compounds gain access to these cells primarily via the PTS. […] Since the viability of MALME-3M cells could be partially rescued by spermidine, compounds 8a and 8b may gain access via the PTS and via non-PTS related pathway(s).

For `Cl.NCCCCNCCCCNCc1ccc(CNCCCCNCCCCN)cc1` [Compound 8a], the “viability after rescue by exogenous spermidine in MALME-3M” value was under 80%.

`CNCCCCNCCCCNCc1ccc(CNCCCCNCCCCNC)cc1` [Compound 8b, N1,N1′-(1,4-Phenylenebis(methylene))bis(N4-(4-(methylamino)butyl)butane-1,4-diamine)] was tested, and the “viability after rescue by exogenous spermidine in MALME-3M” value was under 80%.
